Data reported in patent US9911927B2, “Compounds having semiconducting properties and related compositions and devices” (Flexterra, Inc., priority 2011, dated 2018).

Columns and labels:
[1] = OTFT performance, top gate bottom contact (TGBC) devices, spin-coated semiconductor; conditions: spin-coating (<40° C.), Ag contacts
Method: Device Fabrication Procedure (Top Gate Bottom Contact (TGBC)): For TGBC devices, PolyEthyleneNaphthalate (PEN) substrates (2″×2″) were planarized with UV-curable polymeric films (ActivInk D1400, Polyera Corp., Skokie, Ill.). A silver layer of 30 nm was then deposited by thermal evaporation. Source and drain contacts were patterned using photolithography process and silver was etched by a mixture of acids and water. The semiconductor was spun from a hydrocarbon solution (15 mg-mL) at 2000 rpm. The semiconductor film thickness depends on the solubility of the semiconductor. […] These films were then baked on a hot plate at 110° C. for 10 min to remove residual solvent. The amorphous fluoropolymer CYTOP (CTL-809M, Asahi Glass Corporation) was spun as the top-gate dielectric at 5000 rpm to a thickness of about 450 nm, and baked on a hot plate at about 110° C. for 10 minutes. The device structure was completed by the evaporation of an aligned Ag top-gate stripe.
(§1) The TFT performance of 2,9-1MP-DNTT were compared vis-a-vis to that of C8-DNTT (synthesized according to the procedure reported in Org. Lett. 2011, 13, 3430) in several device architectures.
(§2) All devices were characterized in a Signatone Probe Station using a Keithley 4200 Semiconductor Characterization System to obtain transfer and output characteristics. Device parameters were extracted from the transfer characteristics according to standard transistor equations.

[2] = OTFT performance, bottom gate bottom contact (BGBC) devices, spin-coated semiconductor; conditions: spin-coating (<40° C.), channel length 10 μm, Ag contacts
Source text: Device Fabrication Procedure (Bottom Gate Bottom Contact (BGBC)): For BGBC devices, a Cr/Au gate stripe was evaporated on clean PEN substrates. Subsequently, UV-curable polymeric films (ActivInk D1450, Polyera Corp., Skokie, Ill.) were spun (thickness ˜500 nm) and cured to form the bottom-gate dielectric. A silver layer of 30 nm was then deposited by thermal evaporation. Source and drain contacts were patterned using photolithography process and silver was etched by a mixture of acids and water. Thin films of the semiconductor were prepared according to the same protocols as for the TGBC devices.
as §1, §2

[3] = OTFT performance, bottom gate top contact (BGTC) devices, semiconductor by physical vapor deposition; conditions: PVD, Au contacts
Source text: Device Fabrication Procedure (Bottom Gate Top Contact (BGTC)): BGTC TFTs were fabricated using compounds of the present teachings as the semiconductor layer. N-doped silicon wafers (100) with 3000 Å thermally grown silicon dioxide layer (Addison Inc. were used as device substrates. Prior to deposition of the semiconductor, the Si/SiO2 surfaces were modified through a special octadecyltrichlorosilane (OTS) treatment process. Thin films of semiconductors approximately 40-120 nm in thickness were prepared through physical vapor deposition (PVD), with the deposition rate of 0.1-0.5 Å/s and the substrate temperature of 30-120° C. The TFTs were completed by vapor deposition of 300 Å gold source/drain electrodes onto the semiconductor layer through a stencil mask to define the transistor channel. The channel lengths and widths are about 50-200 μm and about 500-2000 μm, respectively. The silicon dioxide layer served as the gate insulator. The gate electrode was accessed through an ohmic contact to the doped silicon.
as §1, §2

| SMILES | average hole mobility μmean ([1]; channel length 10 μm) [cm^2/V · s] | on/off ratio ION/IOFF ([1]; channel length 10 μm) | threshold voltage VT ([1]; channel length 10 μm) | average hole mobility μmean [2] [cm^2/V · s] | on/off ratio ION/IOFF [2] | threshold voltage VT [2] [V] | average hole mobility μmean ([3]; channel length 100 μm) [cm^2/V · s] | on/off ratio ION/IOFF ([3]; channel length 100 μm) | threshold voltage VT ([3]; channel length 100 μm) [V] | further results |
| --- | --- | --- | --- | --- | --- | --- | --- | --- | --- | --- |
| CCCC(C)c1ccc2cc3c(cc2c1)sc1c2cc4ccc(C(C)CCC)cc4cc2sc31 (stereo not drawn) [2,9-1MB-DNTT, 2,9-Bis(1-methylbutyl)dinaphtho [2,3-b:2′,3′-f]thieno[3,2-b]thiophene] | 1.80 | 1 × 10^7 | +4 V |  |  |  |  |  |  |  |
| CCCCC(C)c1ccc2cc3c(cc2c1)sc1c2cc4ccc(C(C)CCCC)cc4cc2sc31 (stereo not drawn) [2,9-1MP-DNTT, 2,9-Bis(1-methylpentyl)dinaphtho[2,3-b:2′,3′-f]thieno[3,2-b]thiophene] | 1.01 | 2 × 10^6 | +2 V | 0.70 | 7 × 10^6 | 0 |  |  |  | average hole mobility μmean ([1]; channel length 3 μm): 0.35 cm^2/V · s; on/off ratio ION/IOFF ([1]; channel length 3 μm): 2 × 10^7; threshold voltage VT ([1]; channel length 3 μm): +6 V; average hole mobility μmean ([1]; channel length 5 μm): 0.56 cm^2/V · s; on/off ratio ION/IOFF ([1]; channel length 5 μm): 1 × 10^7; threshold voltage VT ([1]; channel length 5 μm): +5 V; average hole mobility μmean ([1]; channel length 20 μm): 1.50 cm^2/V · s; on/off ratio ION/IOFF ([1]; channel length 20 μm): 8 × 10^6; threshold voltage VT ([1]; channel length 20 μm): 0 V; average hole mobility μmean ([3]; channel length 50-200 μm): 1-3 cm^2/V · s; on/off ratio ION/IOFF ([3]; channel length 50-200 μm): ~10^6; threshold voltage VT ([3]; channel length 50-200 μm): ~−0 V |
| CCCCC(C)c1ccc2cc3c(cc2c1)sc1c2cc4ccccc4cc2sc31 (stereo not drawn) [Compound 2-1MP-DNTT, 2-(1-methylpentyl)dinaphtho[2,3-b:2′,3′-f]thieno[3,2-b]thiophene] |  |  |  |  |  |  | 2.3 | ~10^6 | ~−60 |  |
| CCCCC(C)c1ccc2cc3c(cc2c1)sc1c2ccccc2sc31 (stereo not drawn) [Compound 2-1MP-NTTB, 2-(1-methylpentyl)naphtho[2,3-b]benzo[1,2-f]thieno[3,2-b]thiophene] | 0.14 | ~10^7 | ~−2 V | 0.10 | ~10^6 | ~−2 | 0.3 | ~10^6 | ~−25 |  |
